Measured values as given in paper PMC9458062, “^131I-C19 Iodide Radioisotope and Synthetic I-C19 Compounds as K-Ras4B–PDE6δ Inhibitors: A Novel Approach against Colorectal Cancer—Biological Characterization, Biokinetics and Dosimetry” (Molecules, 2022).

How the values were obtained:
HCT116 = assay: Cell uptake, internalization and radiation absorbed dose to the nucleus; assay type: cell-based, human
Procedure: The HCT116, LoVo and SW620 cells were seeded in 48-well tissue culture plates at a density of 10^5 cells/well. After 24 h, the cells were exposed to 1.44 Bq/cell of ^131I-C19 (200 μL) at 37 °C for 1, 3 and 5 h. After treatment, two washes (1 mL of ice-cold PBS) were performed. For the calculation of the cell uptake, the cells in each well were treated (at room temperature for 5 min) with 500 μL of glycine buffer (50 mM, pH 2.8). Then, this fraction was removed, and the radioactivity was measured in a NaI (Tl) detector (BCL, San Rafael CA, USA). To evaluate the ^131I-C19 internalization, the cells were incubated with 1 mL of NaOH 0.3 M (at room temperature for 10 min). Once more, the radioactivity was measured in a NaI (Tl) detector (BCL, San Rafael CA, USA). A 100% standard solution (200 μL) of ^131I-C19 was also measured (n = 5). The uptake (%) (plasmatic membrane) and internalization (%) (cytoplasm) were used to obtain the radiation absorbed dose. […]

[1] = Radiation absorbed dose estimation for organs and tumor; assay type: in vivo, Nu/Nu mice with LoVo xenograft tumors; conditions: for Absorbed Dose / Total Nuclear Transformation N: 5 MBq intraperitoneal

COc1ccc(CNC(C)C(=O)Nc2cc([131I])ccc2[131I])cc1OC (centres unmarked) [^131I-C19]
Cytoplasm Total Nuclear Transformations (HCT116; HCT116): 47 Bq^.s | Absorbed Dose DN←Cy (HCT116; HCT116, cytoplasm to nucleus): 0.01 Gy | Absorbed Dose ([1]; Colon (Large intestine)): 0.14 Gy | Total Nuclear Transformation N ([1]; Colon (Large intestine)): 504 MBq.s | Absorbed Dose ([1]; Kidney): 0.12 Gy | Total Nuclear Transformation N ([1]; Kidney): 1796 MBq.s | Absorbed Dose ([1]; Liver): 0.34 Gy | Total Nuclear Transformation N ([1]; Liver): 3816 MBq.s | Absorbed Dose ([1]; Lung): 0.40 Gy | Total Nuclear Transformation N ([1]; Lung): 421 MBq.s | Absorbed Dose ([1]; Pancreas): 0.18 Gy | Total Nuclear Transformation N ([1]; Pancreas): 399 MBq.s | Absorbed Dose ([1]; Spleen): 0.19 Gy | Total Nuclear Transformation N ([1]; Spleen): 151 MBq.s | Absorbed Dose ([1]; Tumor (LoVo)): 3.55 Gy | Total Nuclear Transformation N ([1]; Tumor): 7020 MBq.s | radiation absorbed dose to the tumor, extrapolated ([1]; Tumor, administration of 74 MBq (2 mCi)): 52 Gy/74 MBq
